We go through 1 molecule from US20240200085A1.

Results are given in words; binding and its absence hold for the method and conditions named. Some entries that bind do so weakly or less than the wild type. Tags and fused reporters may be left off the sequences shown.

Test [1] concerns the target Lotus NFR5 kinase (residues A276-T563) (Lotus japonicus). In words: phage display selection and ELISA screen on coated NFR5 kinase, then analytical SEC (FIGS. 1A-1C).
Test [2] has the same target. In words: analytical size exclusion chromatography (Superdex 200 increase 10/300), 1:1.5 molar mix, co-elution confirmed by SDS-PAGE.

B1: NbNFR5 (VHH towards NFR5) with C-terminal non-cleavable 6x-histidine tag (VHH, not shown: small tags and cut ends)
VHH: QVQLVETGGGLVQDGDSLRLSCAASGFTFSNYYMSWVRQAPGKGLEWVSGITSGGTYTYDAVKDRFTISRDNAKNTLYLQMNSLKPEDTAVYYCAKGGTSVAVRGFYDYRGQGTQVTVSS
Turning to B1, the binding entry in test [1] and in test [2] was “binds” in each case.
